Measurements reported in PubChem BioAssay AID1224831 (NIAID, 2016).

Test: 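Genes that support or restrain LPS-induced TNF-alpha reporter activity in macrophage-like cells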 (follow-up of hits)
System: human THP-1 B5 monocytic leukaemia cells carrying a TNF promoter luciferase reporter, made macrophage-like with PMA
Reagents: single siRNA against human genes, 50 nM
Time to read-out: about 68 h of knock-down, then 4 h LPS
Challenge: LPS (Salmonella minnesota, TLR-grade) at 10 ng/ml for 4 h; PMA 5 ng/ml present during knock-down
Measurement: 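TNF promoter reporter read as dual luciferase ratio after 4 h LPS, normalised per plate to its median, given as replicate mean robust z-score per siRNA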
Reading the numbers: TNF reporter z-score: higher = stronger LPS-induced TNF reporter signal; z-score, median over gene's siRNAs: higher = stronger TNF reporter signal across the gene's siRNAs
Hit rule: 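Active when the replicate mean z-score is about -1 or lower, or about 1.5 or higher; lowered and raised TNF reporter signal both count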
Meaning of the calls: active = changed TNF reporter (either direction); inactive = little change
In all, the deposit lists about 3,500 reagents; this is an unselected part. 731 of them (21%) were called active. 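Active means either lowered or raised reporter signal; the gene-median score did not drive the per-siRNA calls.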 Entries without a mark were called inactive. Reagents against one gene are numbered here.

no.	target	reagent no.	TNF reporter z-score, replicate mean	z-score, median over gene's siRNAs
1	UMOD (GeneID 7369)	1	-0.96	-0.15
2	UMOD (GeneID 7369)	2	-0.44	-0.15
3	UMOD (GeneID 7369)	3	0.9	-0.15
4	UMOD (GeneID 7369)	4	-0.44	-0.15
5	UMOD (GeneID 7369)	5	0.14	-0.15
6	UMOD (GeneID 7369)	6	0.38	-0.15
7	TYR (GeneID 7299)	1	0.88	0.665
8	TYR (GeneID 7299)	2	2.65 (active)	0.665
9	TYR (GeneID 7299)	3	0.45	0.665
10	TYR (GeneID 7299)	4	-0.21	0.665
11	TYR (GeneID 7299)	5	2.79 (active)	0.665
12	TYR (GeneID 7299)	6	-0.41	0.665
13	SLC2A1 (GeneID 6513)	1	-0.31	-0.515
14	SLC2A1 (GeneID 6513)	2	0.07	-0.515
15	SLC2A1 (GeneID 6513)	3	-1.26 (active)	-0.515
16	SLC2A1 (GeneID 6513)	4	-0.88	-0.515
17	SLC2A1 (GeneID 6513)	5	-0.72	-0.515
18	SLC2A1 (GeneID 6513)	6	0.07	-0.515
19	ALMS1 (GeneID 7840)	1	-0.09	-0.025
20	ALMS1 (GeneID 7840)	2	1.13	-0.025
21	ALMS1 (GeneID 7840)	3	-1.74 (active)	-0.025
22	ALMS1 (GeneID 7840)	4	-1.23 (active)	-0.025
23	ALMS1 (GeneID 7840)	5	0.04	-0.025
24	ALMS1 (GeneID 7840)	6	0.24	-0.025
25	NDE1 (GeneID 54820)	1	0.66	0.31
26	NDE1 (GeneID 54820)	2	0.4	0.31
27	NDE1 (GeneID 54820)	3	-0.3	0.31
28	NDE1 (GeneID 54820)	4	-1 (active)	0.31
29	NDE1 (GeneID 54820)	5	1.03	0.31
30	NDE1 (GeneID 54820)	6	0.22	0.31
31	DUS3L (GeneID 56931)	1	1.12	0.375
32	DUS3L (GeneID 56931)	2	0.32	0.375
33	DUS3L (GeneID 56931)	3	-0.26	0.375
34	DUS3L (GeneID 56931)	4	2.09 (active)	0.375
35	DUS3L (GeneID 56931)	5	0.43	0.375
36	DUS3L (GeneID 56931)	6	0.1	0.375
37	LRRC8D (GeneID 55144)	1	1.01	0.865
38	LRRC8D (GeneID 55144)	2	0.73	0.865
39	LRRC8D (GeneID 55144)	3	0.92	0.865
40	LRRC8D (GeneID 55144)	4	0.81	0.865
41	LRRC8D (GeneID 55144)	5	0.37	0.865
42	LRRC8D (GeneID 55144)	6	2.59 (active)	0.865
43	SCARB1 (GeneID 949)	1	-0.12	-0.205
44	SCARB1 (GeneID 949)	2	-0.29	-0.205
45	SCARB1 (GeneID 949)	3	-0.34	-0.205
46	SCARB1 (GeneID 949)	4	0.35	-0.205
47	SCARB1 (GeneID 949)	5	-1.52 (active)	-0.205
48	SCARB1 (GeneID 949)	6	1.57 (active)	-0.205
49	ROR1 (GeneID 4919)	1	-0.72	-0.195
50	ROR1 (GeneID 4919)	2	-0.19	-0.195
51	ROR1 (GeneID 4919)	3	0.86	-0.195
52	ROR1 (GeneID 4919)	4	-0.2	-0.195
53	ROR1 (GeneID 4919)	5	-0.32	-0.195
54	ROR1 (GeneID 4919)	6	0.4	-0.195
55	NCAPG2 (GeneID 54892)	1	-0.27	0.72
56	NCAPG2 (GeneID 54892)	2	1.77 (active)	0.72
57	NCAPG2 (GeneID 54892)	3	-0.08	0.72
58	NCAPG2 (GeneID 54892)	4	1.52 (active)	0.72
59	NCAPG2 (GeneID 54892)	5	-0.18	0.72
60	NCAPG2 (GeneID 54892)	6	4.16 (active)	0.72

In a second layout: results already given
target,reagent no.,"TNF reporter z-score, replicate mean","z-score, median over gene's siRNAs"
SLC2A1 (GeneID 6513),6,0.07,-0.515
ALMS1 (GeneID 7840),1,-0.09,-0.025
ALMS1 (GeneID 7840),2,1.13,-0.025
ALMS1 (GeneID 7840),3,-1.74 (active),-0.025
ALMS1 (GeneID 7840),4,-1.23 (active),-0.025
ALMS1 (GeneID 7840),5,0.04,-0.025
ALMS1 (GeneID 7840),6,0.24,-0.025
NDE1 (GeneID 54820),1,0.66,0.31
NDE1 (GeneID 54820),2,0.4,0.31
NDE1 (GeneID 54820),3,-0.3,0.31

Next results:
no.	target	reagent no.	TNF reporter z-score, replicate mean	z-score, median over gene's siRNAs
61	RCN3 (GeneID 57333)	1	2.09 (active)	0.34
62	RCN3 (GeneID 57333)	2	0.21	0.34
63	RCN3 (GeneID 57333)	3	0.18	0.34
64	RCN3 (GeneID 57333)	4	0.13	0.34
65	RCN3 (GeneID 57333)	5	0.47	0.34
66	RCN3 (GeneID 57333)	6	0.84	0.34
67	PSMD8 (GeneID 5714)	1	-0.9	-1.05
68	PSMD8 (GeneID 5714)	2	-1.39 (active)	-1.05
69	PSMD8 (GeneID 5714)	3	-1.89 (active)	-1.05
70	PSMD8 (GeneID 5714)	4	0.37	-1.05
71	PSMD8 (GeneID 5714)	5	-1.21 (active)	-1.05
72	PSMD8 (GeneID 5714)	6	-0.83	-1.05
73	RAPGEF3 (GeneID 10411)	1	-0.83	-0.185
74	RAPGEF3 (GeneID 10411)	2	0.36	-0.185
75	RAPGEF3 (GeneID 10411)	3	2.06 (active)	-0.185
76	RAPGEF3 (GeneID 10411)	4	-0.73	-0.185
77	RAPGEF3 (GeneID 10411)	5	-1.13 (active)	-0.185
78	RAPGEF3 (GeneID 10411)	6	2.38 (active)	-0.185
79	PDCD2 (GeneID 5134)	1	-0.58	-0.3
80	PDCD2 (GeneID 5134)	2	-0.02	-0.3
81	PDCD2 (GeneID 5134)	3	0.41	-0.3
82	PDCD2 (GeneID 5134)	4	-1.16 (active)	-0.3
83	PDCD2 (GeneID 5134)	5	0.82	-0.3
84	PDCD2 (GeneID 5134)	6	-1.3 (active)	-0.3
85	CNTNAP5 (GeneID 129684)	1	0.56	1.2
86	CNTNAP5 (GeneID 129684)	2	0.38	1.2
87	CNTNAP5 (GeneID 129684)	3	2.07 (active)	1.2
88	CNTNAP5 (GeneID 129684)	4	5.49 (active)	1.2
89	CNTNAP5 (GeneID 129684)	5	-0.04	1.2
90	CNTNAP5 (GeneID 129684)	6	1.83 (active)	1.2
91	LRRC40 (GeneID 55631)	1	0.76	-0.24
92	LRRC40 (GeneID 55631)	2	-0.53	-0.24
93	LRRC40 (GeneID 55631)	3	-0.18	-0.24
94	LRRC40 (GeneID 55631)	4	-0.3	-0.24
95	LRRC40 (GeneID 55631)	5	-1.06 (active)	-0.24
96	LRRC40 (GeneID 55631)	6	1.93 (active)	-0.24
97	DAPL1 (GeneID 92196)	1	-1 (active)	-0.17
98	DAPL1 (GeneID 92196)	2	-0.25	-0.17
99	DAPL1 (GeneID 92196)	3	-0.21	-0.17
100	DAPL1 (GeneID 92196)	4	-0.13	-0.17
101	DAPL1 (GeneID 92196)	5	0.68	-0.17
102	DAPL1 (GeneID 92196)	6	0.07	-0.17
103	ADPRHL1 (GeneID 113622)	1	0.79	-0.62
104	ADPRHL1 (GeneID 113622)	2	-0.39	-0.62
105	ADPRHL1 (GeneID 113622)	3	-0.86	-0.62
106	ADPRHL1 (GeneID 113622)	4	-0.19	-0.62
107	ADPRHL1 (GeneID 113622)	5	-0.85	-0.62
108	ADPRHL1 (GeneID 113622)	6	-1.2 (active)	-0.62
